Most values lie at the floor of the assay. Slopes are relative: functional sequences can read slightly below zero.
test system: Saccharomyces cerevisiae PS128 hsf1 delta, HSF1(1-493) fusion; assay: growth estimate (transactivation domain function in HSF1 fusion, heat-shock survival) (a.u. (slope of normalised read count over time)); higher = stronger growth at 37°C, i.e. more transactivation activity; conditions: library: random library

Substance	growth estimate
SWVQILTGVLRVWLLPDKKS	< -0.25
TPTEKYNHWGEQPHGFCHWG	< -0.25
VTSGSR	-0.243
VLSPPLPQP	< -0.25
SGALTLVNRMVFLGFRCRSV	< -0.25
VHVHGRQLSLITDSNNM	< -0.25
GTTFVQTTSTNHVDANKALR	< -0.25
ASWLEPRSGKRPFSWVFKLC	< -0.25
GEWIGLMRSAGIYFR	< -0.25
FRIRHVRQISPIDPVVRS	< -0.25
KPSDRHHLGS	< -0.25
EVFRITRQDYSTSAYDEARR	-0.0563
NVGVPSTSRAGSNLADSRT	< -0.25
ASRV	< -0.25
DGMHAAGTAAITAYTTGREM	< -0.25
RMGRLSASGGATRLGLGDDV	< -0.25
FKI	< -0.25
VVGVEKQTRCSGWSC	< -0.25
ASSFLYGS	< -0.25
RPVRFDKGESQVGGASG	< -0.25
HGT	< -0.25
RRLAVAYRNANKMSTRGAFN	< -0.25
ALAHPSLCRVSLVVFMPPE	< -0.25
AWVMVRGALEASVGYSRNLL	< -0.25
TFSPQDHDILPGSMASP	-0.138

Substance	growth estimate
GQPC	< -0.25
QLGGLS	< -0.25
RSNDV	< -0.25
LSLCMKSLHVHRVCLSGDLG	-0.231
GSGLGSL	< -0.25
ISYERLPTSVP	< -0.25
YLGILVESIHLT	< -0.25
LTDHGGGRIRAVGTAVCHRL	< -0.25
NRTGTRLSRRPMDHRPSDTF	< -0.25
FCRPPVSALRRLMLRGWPID	< -0.25
IRSMLWWDDTRQHSWKSRTA	< -0.25
GDLIEDSEGSFTSTS	< -0.25
HCSNLVSDYI	< -0.25
SNLGKLGFLAFRLNPPDVLT	< -0.25
APMACGHLCPVTIRF	< -0.25
SHKSLF	< -0.25
LFIISTT	< -0.25
LGGIGQKHR	< -0.25
AVSLSTRYKNGSHSQLTNIS	< -0.25
SPVVSEGPYLVHTSLD	< -0.25
DEQAPLPRRLLGPWERDPVR	< -0.25
TCCL	< -0.25
YSLLDRCPPCDQVPVAGARS	< -0.25
RPPDSTSRAASNAASVLI	< -0.25
RTLRRIARTLQPG	< -0.25

Looked up one by one from the entries so far, 4 records:
Substance	growth estimate
SHKSLF	< -0.25
GDLIEDSEGSFTSTS	< -0.25
GSGLGSL	< -0.25
GQPC	< -0.25

Continuation.

Substance	growth estimate
LVPPIIYDI	< -0.25
LGNS	< -0.25
TTD	< -0.25
GWGISNFRAHA	< -0.25
LSVKPD	-0.25
IRGHRVCLVTGVPSLRPASP	< -0.25
SHCRQI	< -0.25
RGCLARHVSLCGSSDGAGLL	< -0.25
IWDGAWVRGDPHNYQAISGI	< -0.25
RMPSQSGSGKGIGWAKD	< -0.25
DGIRKGRVVDRGDLMLSTAL	< -0.25
KEVKHAVGGGMLSIVTRLFS	< -0.25
SLGDRSGVFEDVHRLRSRNG	-0.243
QVI	< -0.25
PISG	< -0.25
SQSEP	< -0.25
FGNTCALLYYL	< -0.25
STNMLGRSPNCMRGKVCAPH	< -0.25
GVPRRYG	< -0.25
LGCIMEQYARMLLIVVRRRT	< -0.25
RSIVLIREDTIRVQVTYIQS	< -0.25
GPRNHRSKV	< -0.25
RKGEVLEDTVC	< -0.25
VLLLIS	< -0.25

Reference: the supplement of paper PMC5949888
